Measurements published in paper PMC5324115.
Results are given in words; binding and its absence hold for the method and conditions named. Binding seen in cells or lysates may run through a third protein. Some binding calls cover weakened binding; strength is not graded here. Sequences can lack the tags named with a protein.

T1: HisPBP3 (E. coli PBP3, FtsI, with N-terminal His-tag) (E. coli) (UniProt P0AD68)
T1 sequence: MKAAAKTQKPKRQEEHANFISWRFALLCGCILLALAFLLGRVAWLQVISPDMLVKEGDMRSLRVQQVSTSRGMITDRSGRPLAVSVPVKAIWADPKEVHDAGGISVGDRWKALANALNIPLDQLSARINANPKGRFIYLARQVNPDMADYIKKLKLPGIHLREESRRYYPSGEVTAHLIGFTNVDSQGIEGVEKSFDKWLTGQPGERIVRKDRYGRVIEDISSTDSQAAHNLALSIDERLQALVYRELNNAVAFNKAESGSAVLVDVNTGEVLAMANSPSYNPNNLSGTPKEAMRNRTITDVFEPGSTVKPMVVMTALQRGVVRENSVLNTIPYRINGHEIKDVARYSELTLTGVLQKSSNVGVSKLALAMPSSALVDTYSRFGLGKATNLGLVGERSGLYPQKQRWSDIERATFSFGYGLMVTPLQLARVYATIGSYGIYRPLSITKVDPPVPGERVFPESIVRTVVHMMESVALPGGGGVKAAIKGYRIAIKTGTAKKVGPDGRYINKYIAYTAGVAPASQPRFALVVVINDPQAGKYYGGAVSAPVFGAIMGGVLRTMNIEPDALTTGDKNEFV

T2: FtsW (E. coli, untagged) (E. coli) (UniProt P0ABG4)
T2 sequence: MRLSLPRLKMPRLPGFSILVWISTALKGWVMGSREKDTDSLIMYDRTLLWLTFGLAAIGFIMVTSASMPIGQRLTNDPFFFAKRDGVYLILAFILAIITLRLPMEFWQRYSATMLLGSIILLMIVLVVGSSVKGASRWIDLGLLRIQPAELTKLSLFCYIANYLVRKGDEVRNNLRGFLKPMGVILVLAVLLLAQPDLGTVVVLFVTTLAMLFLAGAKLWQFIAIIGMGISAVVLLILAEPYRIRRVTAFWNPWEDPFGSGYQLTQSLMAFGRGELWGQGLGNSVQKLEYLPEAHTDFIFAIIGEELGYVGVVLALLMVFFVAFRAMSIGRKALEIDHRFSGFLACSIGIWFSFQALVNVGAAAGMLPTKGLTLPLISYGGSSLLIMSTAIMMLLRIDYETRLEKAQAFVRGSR

T3: HisFtsW (E. coli FtsW with N-terminal His-tag) (E. coli) (UniProt P0ABG4)
T3 sequence: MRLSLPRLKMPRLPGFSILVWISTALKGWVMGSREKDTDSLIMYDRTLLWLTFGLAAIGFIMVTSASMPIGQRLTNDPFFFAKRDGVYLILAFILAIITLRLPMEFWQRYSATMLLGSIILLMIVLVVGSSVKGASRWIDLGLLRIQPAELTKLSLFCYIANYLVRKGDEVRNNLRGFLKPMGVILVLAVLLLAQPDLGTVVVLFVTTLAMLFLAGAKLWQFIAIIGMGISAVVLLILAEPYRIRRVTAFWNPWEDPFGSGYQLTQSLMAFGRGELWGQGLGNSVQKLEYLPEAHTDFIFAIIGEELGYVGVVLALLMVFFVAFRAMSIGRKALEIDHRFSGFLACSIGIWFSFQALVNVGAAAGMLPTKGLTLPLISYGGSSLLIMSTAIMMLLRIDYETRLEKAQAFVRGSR

B1: FtsW (E. coli, untagged) (protein, UniProt P0ABG4 1-414)
chain: MRLSLPRLKMPRLPGFSILVWISTALKGWVMGSREKDTDSLIMYDRTLLWLTFGLAAIGFIMVTSASMPIGQRLTNDPFFFAKRDGVYLILAFILAIITLRLPMEFWQRYSATMLLGSIILLMIVLVVGSSVKGASRWIDLGLLRIQPAELTKLSLFCYIANYLVRKGDEVRNNLRGFLKPMGVILVLAVLLLAQPDLGTVVVLFVTTLAMLFLAGAKLWQFIAIIGMGISAVVLLILAEPYRIRRVTAFWNPWEDPFGSGYQLTQSLMAFGRGELWGQGLGNSVQKLEYLPEAHTDFIFAIIGEELGYVGVVLALLMVFFVAFRAMSIGRKALEIDHRFSGFLACSIGIWFSFQALVNVGAAAGMLPTKGLTLPLISYGGSSLLIMSTAIMMLLRIDYETRLEKAQAFVRGSR
B2: PBP1b (E. coli, untagged) (enzyme, UniProt P02919 1-844)
chain: MAGNDREPIGRKGKPTRPVKQKVSRRRYEDDDDYDDYDDYEDEEPMPRKGKGKGKGRKPRGKRGWLWLLLKLAIVFAVLIAIYGVYLDQKIRSRIDGKVWQLPAAVYGRMVNLEPDMTISKNEMVKLLEATQYRQVSKMTRPGEFTVQANSIEMIRRPFDFPDSKEGQVRARLTFDGDHLATIVNMENNRQFGFFRLDPRLITMISSPNGEQRLFVPRSGFPDLLVDTLLATEDRHFYEHDGISLYSIGRAVLANLTAGRTVQGASTLTQQLVKNLFLSSERSYWRKANEAYMALIMDARYSKDRILELYMNEVYLGQSGDNEIRGFPLASLYYFGRPVEELSLDQQALLVGMVKGASIYNPWRNPKLALERRNLVLRLLQQQQIIDQELYDMLSARPLGVQPRGGVISPQPAFMQLVRQELQAKLGDKVKDLSGVKIFTTFDSVAQDAAEKAAVEGIPALKKQRKLSDLETAIVVVDRFSGEVRAMVGGSEPQFAGYNRAMQARRSIGSLAKPATYLTALSQPKIYRLNTWIADAPIALRQPNGQVWSPQNDDRRYSESGRVMLVDALTRSMNVPTVNLGMALGLPAVTETWIKLGVPKDQLHPVPAMLLGALNLTPIEVAQAFQTIASGGNRAPLSALRSVIAEDGKVLYQSFPQAERAVPAQAAYLTLWTMQQVVQRGTGRQLGAKYPNLHLAGKTGTTNNNVDTWFAGIDGSTVTITWVGRDNNQPTKLYGASGAMSIYQRYLANQTPTPLNLVPPEDIADMGVDYDGNFVCSGGMRILPVWTSDPQSLCQQSEMQQQPSGNPFDQSSQPQQQPQQQPAQQEQKDSDGVAGWIKDMFGSN
B3: native E. coli PBP3 (enzyme, UniProt P0AD68 1-577)
chain: MKAAAKTQKPKRQEEHANFISWRFALLCGCILLALAFLLGRVAWLQVISPDMLVKEGDMRSLRVQQVSTSRGMITDRSGRPLAVSVPVKAIWADPKEVHDAGGISVGDRWKALANALNIPLDQLSARINANPKGRFIYLARQVNPDMADYIKKLKLPGIHLREESRRYYPSGEVTAHLIGFTNVDSQGIEGVEKSFDKWLTGQPGERIVRKDRYGRVIEDISSTDSQAAHNLALSIDERLQALVYRELNNAVAFNKAESGSAVLVDVNTGEVLAMANSPSYNPNNLSGTPKEAMRNRTITDVFEPGSTVKPMVVMTALQRGVVRENSVLNTIPYRINGHEIKDVARYSELTLTGVLQKSSNVGVSKLALAMPSSALVDTYSRFGLGKATNLGLVGERSGLYPQKQRWSDIERATFSFGYGLMVTPLQLARVYATIGSYGIYRPLSITKVDPPVPGERVFPESIVRTVVHMMESVALPGGGGVKAAIKGYRIAIKTGTAKKVGPDGRYINKYIAYTAGVAPASQPRFALVVVINDPQAGKYYGGAVSAPVFGAIMGGVLRTMNIEPDALTTGDKNEFV

Assays:
[1] = biological target: T1, HisPBP3 (E. coli PBP3, FtsI, with N-terminal His-tag) (E. coli); test: pull-down; co-expression in E. coli; membranes solubilised with 40 mM LMNG; Ni-affinity column in 50 mM Hepes pH 7.5, 200 mM NaCl, 10% glycerol, 0.2 mM LMNG; imidazole elution; fractions labelled with fluorescent ampicillin, SDS-PAGE
[2] = biological target: T1, HisPBP3 (E. coli PBP3, FtsI, with N-terminal His-tag) (E. coli); test: pull-down; co-expression in E. coli C43 (DE3); membranes solubilised with 40 mM DDM; Ni-affinity (HisTrap) column in 50 mM Hepes pH 7.5, 300 mM NaCl, 10% glycerol, 50 mM imidazole, 1 mM DDM; imidazole elution; fractions labelled with fluorescent ampicillin, SDS-PAGE (anti-HA blot of the flow-through for FtsWHA)
[3] = biological target: T2, FtsW (E. coli, untagged) (E. coli); test: pull-down; co-expression in E. coli; membranes solubilised with 40 mM LMNG; Ni-affinity column in 50 mM Hepes pH 7.5, 200 mM NaCl, 10% glycerol, 0.2 mM LMNG; imidazole elution; fractions labelled with fluorescent ampicillin, SDS-PAGE
[4] = biological target: T3, HisFtsW (E. coli FtsW with N-terminal His-tag) (E. coli); test: as above

| Binder | binding [1] | binding [2] | binding [3] | binding [4] |
| --- | --- | --- | --- | --- |
| B1 | binds | binds |  |  |
| B2 |  |  | binds | binds |
| B3 |  |  |  | binds |
